PubChem BioAssay AID493014 (National Center for Advancing Translational Sciences (NCATS), 2011)
Some of the results follow. Shown are side measurements of this screen, not its main read-out; they come without a call. Compounds called inactive in the main read-out are mostly missing here. The note in brackets gives the kind of curve behind each potency; many fits are weak.

Assay: qHTS Assay to Find Inhibitors of Chronic Active B-Cell Receptor Signaling
Settings: ABC-DLBCL IkBa-CBG/CBR reporter, luminescence ratio (green luciferase fused to IkBa over red control in TMD8 lymphoma cells), 4 h
Outline: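 Doxycycline induced both beetle luciferases in TMD8 lymphoma cells; IKK-driven degradation limits the IkappaBalpha-fused green signal, while red luminescence normalises for cell number and nonspecific effects. Compounds tested up to 46 uM, 4 hrs.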

[1] = measured here: CBR red luminescence, cell number
[2] = measured here: IkBa-CBG green luminescence

Row | SMILES | AC50 [1] | AC50 [2]
1 | CCOc1cc(C(=O)CCC(=O)OCC(=O)Nc2ccc(C)c(S(=O)(=O)N(C)C)c2)ccc1O | 4.47 µM [rising, partial curve, poor fit] | –
2 | CCN(CC)CCNc1nc2cc(OC)c(OC)cc2c2nc(-c3ccccc3)nn12 | – | 4.61 µM [rising, partial curve, poor fit]
3 | CC(=O)N1CCCc2cc(S(=O)(=O)N3CCCC(C(=O)N4CCN(c5cccc(Cl)c5)CC4)C3)ccc21 (configuration not stated) | 35.5 µM [falling, single point] | –
4 | COc1cc(C(=O)NC(=S)Nc2nc(-c3ccc(F)cc3)cs2)cc(OC)c1OC | 5.01 µM [rising, partial curve, poor fit] | –
5 | CC1CCCCN1C(=O)C1CC(c2ccc(F)cc2)=NO1 (configuration not stated) | 7.94 µM [rising, partial curve] | –
6 | COc1ccc(NC(=O)CN2CCN(CC(=O)Nc3ccc(F)cc3F)CC2)cc1 | 5.01 µM [falling, partial curve] | –
7 | CC(C)CC(OC(=O)c1cccs1)C(=O)NCc1ccco1 (configuration not stated) | 16.4 µM [falling, single point] | –
8 | O=C(Nc1cccc(Cl)c1)Nc1nc(-c2ccc(Cl)cc2)cs1 | 3.16 µM [rising, full curve, poor fit] | –
9 | CC(SCC(=O)NC12CC3CC(CC(C3)C1)C2)C(=O)O (configuration not stated) | 1.03 µM [falling, partial curve, poor fit] | –
10 | O=C1NC(=Nc2cccc(O)c2)S/C1=C\c1cccc([N+](=O)[O-])c1 | 28.2 µM [falling, single point] | –
11 | CCOC(=O)c1cnn2cc(-c3[nH]ncc3[N+](=O)[O-])cnc12 | 0.0103 µM [rising, full curve, poor fit] | –
12 | O=C(COC(=O)Cc1c(Cl)cccc1Cl)NCc1ccco1 | 36.6 µM [rising, partial curve, poor fit] | –
13 | Cc1ccc(C(=O)Nc2ccc(NC(=O)c3cccs3)cc2)cc1[N+](=O)[O-] | 14.1 µM [rising, partial curve, poor fit] | –
14 | CCOc1cc(/C=C(\C#N)C(=O)Nc2cccc(C(=O)O)c2)cc(Br)c1OC(=O)c1ccc(OC)cc1 | 35.5 µM [falling, single point] | –
15 | Nc1c(C(=O)CSc2nnnn2-c2ccc(O)cc2)c(=O)[nH]c(=O)n1C1CC1 | 9.2 µM [rising, partial curve] | –
16 | Cc1ccc(OCC(=O)Nc2ccccc2-c2ccccc2)cc1 | 11.2 µM [rising, partial curve] | –
17 | NNC(=O)c1ccccc1OCc1ccccc1 | 2.24 µM [falling, full curve, poor fit] | –
18 | O=C(Nc1ccccc1[N+](=O)[O-])c1nc[nH]c1C(=O)NCCO | 0.562 µM [falling, partial curve, poor fit] | –
19 | Cc1ccc(N/C(=C\C(=O)c2ccccc2)C(=O)O)cc1 | 31.6 µM [falling, single point] | –
20 | O=C(COc1ccccc1)Nc1cccc2nsnc12 | 22.4 µM [falling, single point] | –

Row | SMILES | AC50 [1] | AC50 [2]
21 | CN(C)S(=O)(=O)c1cccc(NC(=O)COC(=O)c2cc3ccccc3oc2=O)c1 | 35.5 µM [falling, single point] | –
22 | CC1CCN(C(=S)c2cn(Cc3ccccc3F)c3ccccc23)CC1 | 3.16 µM [rising, single point] | –
23 | COc1ccccc1-n1nnnc1S(=O)(=O)Cc1ccc(Cl)cc1 | 6.51 µM [falling, partial curve, poor fit] | –
24 | O=C(CN1c2cccc3cccc(c23)S1(=O)=O)NC1CCCCC1 | 0.146 µM [rising, full curve, poor fit] | –
25 | Cc1ccc2c(c1)[C@H]1[C@H](CO2)[C@H](c2ccccc2)[C@]2(C)C(=O)Nc3ccc(Cl)cc3C(=O)N12 | 20.6 µM [falling, single point] | –
26 | O=C(CCc1c[nH]c2ccccc12)NCCOc1ccccc1 | 3.16 µM [rising, full curve, poor fit] | –
27 | COc1ccccc1-c1nn2c(-c3ccco3)nnc2s1 | 7.94 µM [rising, partial curve, poor fit] | –
28 | CC(=O)Nc1cccc(NC(=O)CSc2nc3ccccc3o2)c1 | 29.1 µM [falling, single point] | –
29 | Cn1c(=O)cc(SCC(=O)NCCCN2CCN(c3ccc(F)cc3)CC2)c2ccccc21 | 35.5 µM [falling, single point] | –
30 | COc1ccc2c(c1OC)C(=O)N1N=C(c3ccc(Cl)cc3)CC21 (configuration not stated) | 18.4 µM [falling, single point] | –
31 | CCOC(=O)C1CCCN1C(=O)c1ccc(OC)c(Br)c1 (configuration not stated) | 2.24 µM [rising, partial curve] | –
32 | Cc1ccc(NC(=O)/C=C/c2ccco2)nc1 | 10.3 µM [falling, partial curve] | 2.06 µM [falling, full curve]
33 | CN(C(=O)COC(=O)c1cc(-c2ccc(Cl)s2)nc2ccccc12)C1CCS(=O)(=O)C1 (configuration not stated) | 3.16 µM [rising, single point] | –
34 | O=C(NCCN1CCCCC1)Nc1cccc(C(F)(F)F)c1 | 15.8 µM [rising, single point] | –
35 | O=C(Nc1ccccc1C(=O)O)c1ccc(Br)c(S(=O)(=O)NCc2ccccc2)c1 | 12.6 µM [falling, single point] | –
36 | COc1ccc(-c2c(C)n([O-])c3c([n+]2=O)CCC3)cc1OC | 0.82 µM [rising, full curve, poor fit] | –
37 | CCOC(=O)c1csc(NC(=O)CC2CCCC2)n1 | 15.8 µM [falling, single point] | –
38 | COc1ccc(S(=O)(=O)N(C)C[C@H]2Oc3ccc(NC(=O)Cc4ccccc4)cc3C(=O)N([C@H](C)CO)C[C@@H]2C)cc1 | 14.6 µM [rising, partial curve] | –
39 | CCCCNC(=O)N(O)C1N(/N=C/c2ccccc2OC)C(=S)SC1(C)C (configuration not stated) | 35.5 µM [falling, single point] | –
40 | Cc1n[nH]c(C)c1S(=O)(=O)N(CC(=O)Nc1ccc2c(c1)OCCO2)c1ccc(C(C)C)cc1 | 35.5 µM [falling, single point] | 1 µM [rising, full curve, poor fit]

A second format for two compounds above:
CCOc1cc(C(=O)CCC(=O)OCC(=O)Nc2ccc(C)c(S(=O)(=O)N(C)C)c2)ccc1O
  AC50 [1]: 4.47 µM [rising, partial curve, poor fit]
CCN(CC)CCNc1nc2cc(OC)c(OC)cc2c2nc(-c3ccccc3)nn12
  AC50 [2]: 4.61 µM [rising, partial curve, poor fit]
